# The supplement of paper PMC4604168 (melanoma cell lines)
# This is one part of the list. Repeats are few or missing, and single values can be far off.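 Imaging used 1,536-well plates; nuclei positive for cleaved PARP by antibody were divided by total DNA-stained nuclei to yield the apoptosis fraction. Doses for screening kept most cells viable, and cell lines differ markedly in resting and induced cleaved-PARP levels.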
# Key:
# Assay in all cases: cleaved PARP positive nuclei fraction relative to DMSO control; melanoma cells; higher = more apoptosis
# Settings in all cases: library dose: low library concentration; 72 h
# [1] = system: MZ2-MEL
# [2] = system: MeWo
# [3] = system: RPMI7951
# [4] = system: RVH-421
# [5] = system: SkMel28
# [6] = system: SkMel30
# [7] = system: SkMel5
# [8] = system: UACC257
# [9] = system: UACC62
SMILES,cleaved PARP positive nuclei fraction [1] [%],cleaved PARP positive nuclei fraction [2] [%],cleaved PARP positive nuclei fraction [3] [%],cleaved PARP positive nuclei fraction [4] [%],cleaved PARP positive nuclei fraction [5] [%],cleaved PARP positive nuclei fraction [6] [%],cleaved PARP positive nuclei fraction [7] [%],cleaved PARP positive nuclei fraction [8] [%],cleaved PARP positive nuclei fraction [9] [%]
"C[As](C)SC[C@H](NC(=O)CC[C@H](N)C(=O)O)C(=O)NCC(=O)O [Darinaparsin] + CC(C)CCN1c2nc(Nc3cc(F)c(O)c(F)c3)ncc2N(C)C(=O)C1C [BID1870] (first compound 0.4 µM, partner dose 0.2 µM)",102,59.8,164,98.1,143,31.5,89.5,164,44.8
"C[As](C)SC[C@H](NC(=O)CC[C@H](N)C(=O)O)C(=O)NCC(=O)O [Darinaparsin] + c1cc(-c2cnn3cc(-c4ccc(OCCN5CCCCC5)cc4)cnc23)ccn1 [Dorsomorphin] (first compound 0.4 µM, partner dose 0.4 µM)",44,55.7,78.3,89.4,119,47.8,46.1,105,71.7
"C[C@]12O[C@H](C[C@]1(O)CO)n1c3ccccc3c3c4c(c5c6ccccc6n2c5c31)CNC4=O [Lestaurtinib] + O=C(Nc1ccccc1)c1cc([N+](=O)[O-])ccc1Cl [GW9662] (first compound 0.004 µM, partner dose 2 µM)",73.7,49.2,64.3,128,67.9,141,74.8,109,93.2
"NC(=O)Nc1cc(-c2cccc(F)c2)sc1C(=O)N[C@H]1CCCNC1 + O=C(Oc1ccc([N+](=O)[O-])cc1)N1CCC(C(O)(c2ccc3c(c2)OCO3)c2ccc3c(c2)OCO3)CC1 [JZL184] (first compound 0.02 µM, partner dose 1 µM)",46.4,58.1,41.9,52.2,167,49.1,29.9,122,136
"Nc1cccc2c1CN(C1CCC(=O)NC1=O)C2=O (stereo not drawn) [lenalidomide] + C/C(O)=C(\C#N)C(=O)Nc1cc(Br)ccc1Br [LFM-A13] (first compound 1 µM, partner dose 2 µM)",59.7,26.3,79,84.8,53.6,22,68.2,51.5,91.2
"O=C(O)c1ccc(-c2c[nH]c3ncc(-c4ccccc4)cc23)cc1C1CCCC1 + C/C(O)=C(\C#N)C(=O)Nc1cc(Br)ccc1Br [LFM-A13] (first compound 0.16 µM, partner dose 2 µM)",131,61.6,43,61.3,43.8,125,19,80.7,121
"O=S(=O)(c1ccccc1)N(CC(F)(F)F)c1ccc(C(O)(C(F)(F)F)C(F)(F)F)cc1 + C/C(O)=C(\C#N)C(=O)Nc1cc(Br)ccc1Br [LFM-A13] (first compound 1.4 µM, partner dose 2 µM)",70.6,227,167,62.4,102,117,248,121,122
"O=C(Nc1cccc(Cl)c1)Nc1ncc(CCNc2ncnc3ccsc23)s1 + Cc1cc(SCc2sc(-c3ccc(C(F)(F)F)c(F)c3)nc2C)ccc1OCC(=O)O [GW0742] (first compound 0.0008 µM, partner dose 2 µM)",83.3,154,112,150,118,49.9,135,128,78.7
"C[C@]12O[C@H](C[C@]1(O)CO)n1c3ccccc3c3c4c(c5c6ccccc6n2c5c31)CNC4=O [Lestaurtinib] + CCCCCCCCCCCC1=C(O)C(=O)C=C(O)C1=O [Embelin] (first compound 0.004 µM, partner dose 1.2 µM)",134,46.3,85.3,217,142,29.6,150,40.3,66.5
"Cc1nc(Nc2ncc(C(=O)Nc3c(C)cccc3Cl)s2)cc(N2CCN(CCO)CC2)n1 [dasatanib] + C/C(O)=C(\C#N)C(=O)Nc1cc(Br)ccc1Br [LFM-A13] (first compound 0.004 µM, partner dose 2 µM)",144,39.2,181,45.6,66.3,30.6,128,54.7,46
"C/C(O)=C(\C#N)C(=O)Nc1cc(Br)ccc1Br + CCCCCCCCCCCC1=C(O)C(=O)C=C(O)C1=O [Embelin] (first compound 2 µM, partner dose 1.2 µM)",51.8,64.1,82.2,25.7,147,17.1,123,147,140
"C[As](C)SC[C@H](NC(=O)CC[C@H](N)C(=O)O)C(=O)NCC(=O)O [Darinaparsin] + COc1ccc(COc2ccc(Cc3cnc(N)nc3N)cc2OC)cc1 [GW2580] (first compound 0.4 µM, partner dose 1 µM)",173,98.8,68.2,61.6,60.4,67.1,60.8,77.7,48.6

# Two entries from above, with bars between the fields:
SMILES | cleaved PARP positive nuclei fraction [1] [%] | cleaved PARP positive nuclei fraction [2] [%] | cleaved PARP positive nuclei fraction [3] [%] | cleaved PARP positive nuclei fraction [4] [%] | cleaved PARP positive nuclei fraction [5] [%] | cleaved PARP positive nuclei fraction [6] [%] | cleaved PARP positive nuclei fraction [7] [%] | cleaved PARP positive nuclei fraction [8] [%] | cleaved PARP positive nuclei fraction [9] [%]
C[As](C)SC[C@H](NC(=O)CC[C@H](N)C(=O)O)C(=O)NCC(=O)O [Darinaparsin] + c1cc(-c2cnn3cc(-c4ccc(OCCN5CCCCC5)cc4)cnc23)ccn1 [Dorsomorphin] (first compound 0.4 µM, partner dose 0.4 µM) | 44 | 55.7 | 78.3 | 89.4 | 119 | 47.8 | 46.1 | 105 | 71.7
O=C(O)c1ccc(-c2c[nH]c3ncc(-c4ccccc4)cc23)cc1C1CCCC1 + C/C(O)=C(\C#N)C(=O)Nc1cc(Br)ccc1Br [LFM-A13] (first compound 0.16 µM, partner dose 2 µM) | 131 | 61.6 | 43 | 61.3 | 43.8 | 125 | 19 | 80.7 | 121
